The text below walks through data of article PMC4117610.

Sequences of proteins named here, by UniProt entry; tags and fusion partners are left off.
UniProt Q86TM6: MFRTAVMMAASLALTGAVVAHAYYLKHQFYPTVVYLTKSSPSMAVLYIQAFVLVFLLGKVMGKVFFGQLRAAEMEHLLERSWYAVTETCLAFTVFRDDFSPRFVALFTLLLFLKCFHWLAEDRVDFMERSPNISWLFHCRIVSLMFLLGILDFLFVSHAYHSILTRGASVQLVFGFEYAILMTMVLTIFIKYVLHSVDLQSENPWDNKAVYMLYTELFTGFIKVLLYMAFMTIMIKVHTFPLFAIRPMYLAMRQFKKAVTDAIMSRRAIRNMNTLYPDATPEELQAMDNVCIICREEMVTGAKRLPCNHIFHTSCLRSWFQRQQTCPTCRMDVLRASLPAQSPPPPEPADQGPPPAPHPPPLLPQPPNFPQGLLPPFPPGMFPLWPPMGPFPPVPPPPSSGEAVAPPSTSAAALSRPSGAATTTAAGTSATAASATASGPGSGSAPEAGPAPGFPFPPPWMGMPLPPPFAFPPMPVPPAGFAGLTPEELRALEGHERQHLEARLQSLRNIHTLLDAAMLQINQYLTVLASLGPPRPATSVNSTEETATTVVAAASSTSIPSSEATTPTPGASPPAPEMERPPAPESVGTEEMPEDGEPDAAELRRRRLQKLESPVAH

The target in assay [1] is T1, Derlin-2 (human (endogenous in HeLa and 293)) (UniProt Q9GZP9).
T1 sequence: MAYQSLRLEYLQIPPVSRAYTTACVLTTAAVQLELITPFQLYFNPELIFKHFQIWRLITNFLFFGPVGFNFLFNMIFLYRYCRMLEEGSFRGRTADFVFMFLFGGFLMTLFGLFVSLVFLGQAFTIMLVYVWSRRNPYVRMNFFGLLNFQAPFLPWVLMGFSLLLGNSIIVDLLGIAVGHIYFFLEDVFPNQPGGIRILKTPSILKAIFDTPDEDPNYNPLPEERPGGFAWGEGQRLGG
Briefly: co-IP; Derl2 precipitated with rabbit anti-Derl2 antibody and protein-A sepharose from lysates (1% digitonin, 25 mM Tris-HCl, 150 mM NaCl, 5 mM EDTA, pH 7.0) of wildtype and Derl2-deleted cells, as in Fig. 2i (HeLa); western blot for Hrd1. (In general: In western blotting, separated proteins are transferred to a membrane and probed.)

Assay [2] addresses E3 ubiquitin-protein ligase Hrd1 (human (endogenous in HeLa and 293)) (UniProt Q86TM6). Briefly: co-IP; Hrd1 precipitated with mouse anti-Hrd1/SYVN1 monoclonal antibody and protein-A sepharose from lysates (1% digitonin, 25 mM Tris-HCl, 150 mM NaCl, 5 mM EDTA, pH 7.0) of wildtype and ΔHrd1 cells (293); western blot for Derl2.

Results are given in words; binding and its absence hold for the method and conditions named. In cells and extracts the contact can be indirect. Some results given as binding are weak or reduced against the parent protein; the word gives no strength.

Turning to “E3 ubiquitin-protein ligase Hrd1 (from UniProt Q86TM6 1-617)”, the binding result in assay [1] is listed as “binds”.

B1: Derlin-2 (protein, UniProt Q9GZP9 1-239)
chain: MAYQSLRLEYLQIPPVSRAYTTACVLTTAAVQLELITPFQLYFNPELIFKHFQIWRLITNFLFFGPVGFNFLFNMIFLYRYCRMLEEGSFRGRTADFVFMFLFGGFLMTLFGLFVSLVFLGQAFTIMLVYVWSRRNPYVRMNFFGLLNFQAPFLPWVLMGFSLLLGNSIIVDLLGIAVGHIYFFLEDVFPNQPGGIRILKTPSILKAIFDTPDEDPNYNPLPEERPGGFAWGEGQRLGG
In the case of B1, the binding entry in assay [2] is reported as “binds”.
